pKd: −log10 of the molar value. Construct, isoform or probe ends are uncertain for at least one entry. For some of these results: No signal at the amounts used counts as a negative. For some of these results: At least one verdict rests on a figure or table, not on a statement of the authors.
Columns and labels:
[1] = target: cardiac troponin I (cTnI) (UniProt P19429); test: binding assay; settings: Kd method not stated, 3'-(CH2)6-SH thiol, SERS sandwich: 300 mM NaCl, 20 mM Tris-HCl, 0.5 mM beta-mercaptoethanol, 20% (w/v) glycerol, 0.05% Tween 20, pH 8.0 (or with 20% human serum), 35 °C, 6 h, single-stranded DNA
troponin T (TnT) = test: SERS sandwich on Au nanoplate; settings: 10 pM protein, reporter N2, negligible signal, slightly above blank; 3'-(CH2)6-SH thiol; SERS sandwich: 300 mM NaCl, 20 mM Tris-HCl, 0.5 mM beta-mercaptoethanol, 20% (w/v) glycerol, 0.05% Tween 20, pH 8.0 (or with 20% human serum), 35 °C, 6 h; commercial protein; single-stranded DNA
[2] = target: cardiac troponin I (cTnI) (UniProt P19429); test: SERS sandwich on Au nanoplate; settings: reporter on Au NP binds cTnI captured by N1; 3'-(CH2)6-SH thiol; SERS sandwich: 300 mM NaCl, 20 mM Tris-HCl, 0.5 mM beta-mercaptoethanol, 20% (w/v) glycerol, 0.05% Tween 20, pH 8.0 (or with 20% human serum), 35 °C, 6 h; label: 5'-Cy5; single-stranded DNA

Sequence	pKd ([1]; text instead gives 3.10 nM for probe-cTnI)	binding result (troponin T (TnT))	pKd ([1]; text instead gives 3.37 nM for reporter-cTnI, label: 5'-Cy5)	binding result [2]
CGCATGCCAAACGTTGCCTCATAGTTCCCTCCCCGTGTCC [Probe aptamer]	9.50	no binding	–	–
CGTGCAGTACGCCAACCTTTCTCATGCGCTGCCCCTCTTA [Reporter aptamer]	–	–	9.57	binds
